Results deposited as PubChem BioAssay AID1259424 (University of Nebraska Medical Center, 2018).
Test: 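Seek colon cancer survival genes behaving like KSR1, using a six-gene signature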 (primary screen). Cell system: human HCT116 colon cancer cells. Reagent: siRNA pool against human genes, 50 nM. Detection: 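Six signature mRNAs by branched-DNA multiplex assay, scaled to two housekeeping genes and non-targeting median, log2; matched to mean KSR1 knockdown profile by Pearson correlation and euclidean distance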. Direction: mean correlation with KSR1 profile: higher = expression change more like KSR1 knockdown; mean distance from KSR1 profile: higher = expression change less like KSR1 knockdown.
The deposit covers about 14,000 reagents; this is a random part of them. 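Higher correlation or smaller distance means closer resemblance to KSR1 loss; control wells, including KSR1 knockdowns, recur on many plates.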 Not all columns of the deposit are shown. No sequences are given here. Not stated in the record: the time to read-out.

With knock-down of CCR10, the screen gave mean correlation with KSR1 profile 0.0364; mean distance from KSR1 profile 3.21.
After knock-down of PLEKHG1, the record shows mean correlation with KSR1 profile -0.666; mean distance from KSR1 profile 4.59.
PPP1R16B scored mean correlation with KSR1 profile 0.906; mean distance from KSR1 profile 1.83.
For DHDH the deposit lists mean correlation with KSR1 profile -0.594; mean distance from KSR1 profile 2.03.
After knock-down of SERF2, the record shows mean correlation with KSR1 profile -0.628; mean distance from KSR1 profile 3.15.
Knock-down of EXOC6 gave: mean correlation with KSR1 profile -0.312; mean distance from KSR1 profile 2.54.
With knock-down of NYNRIN, the record shows mean correlation with KSR1 profile -0.202; mean distance from KSR1 profile 4.73.
HOXD9 scored mean correlation with KSR1 profile -0.0623; mean distance from KSR1 profile 1.59.
For ADCY9, the entry reads mean correlation with KSR1 profile -0.353; mean distance from KSR1 profile 2.05.
Silencing of SUCNR1 gave: mean correlation with KSR1 profile -0.0394; mean distance from KSR1 profile 2.62.
After knock-down of POLM, the screen gave mean correlation with KSR1 profile -0.282; mean distance from KSR1 profile 1.63.
RFFL showed mean correlation with KSR1 profile -0.697; mean distance from KSR1 profile 1.81.
SLC39A4 showed mean correlation with KSR1 profile -0.43; mean distance from KSR1 profile 2.37.
For SLC7A14, the entry reads mean correlation with KSR1 profile -0.791; mean distance from KSR1 profile 1.59.
Silencing of DTNB came out at: mean correlation with KSR1 profile -0.231; mean distance from KSR1 profile 2.9.

Ordered by “mean correlation with KSR1 profile” (ascending): 2 of the entries above.
SERF2 → mean correlation with KSR1 profile: -0.628; mean distance from KSR1 profile: 3.15
EXOC6 → mean correlation with KSR1 profile: -0.312; mean distance from KSR1 profile: 2.54

Continued.
ADAMTS16 scored mean correlation with KSR1 profile -0.48; mean distance from KSR1 profile 2.41.
For GMEB2 the deposit lists mean correlation with KSR1 profile 0.00767; mean distance from KSR1 profile 2.18.
Silencing of SCAPER came out at: mean correlation with KSR1 profile 0.0811; mean distance from KSR1 profile 1.41.
Depletion of PCDHB4 came out at: mean correlation with KSR1 profile 0.667; mean distance from KSR1 profile 2.15.
For EEF1AKMT3, the values are mean correlation with KSR1 profile -0.521; mean distance from KSR1 profile 3.95.
With knock-down of GNG4, the screen gave mean correlation with KSR1 profile 0.61; mean distance from KSR1 profile 2.12.
For CYP27B1 the deposit lists mean correlation with KSR1 profile -0.407; mean distance from KSR1 profile 3.48.
GLRX5 gave mean correlation with KSR1 profile -0.0695; mean distance from KSR1 profile 2.94.
With knock-down of CD320, the screen gave mean correlation with KSR1 profile 0.00836; mean distance from KSR1 profile 2.23.
For XAGE2 the deposit lists mean correlation with KSR1 profile -0.35; mean distance from KSR1 profile 4.08.
Against RGCC, the values are mean correlation with KSR1 profile -0.251; mean distance from KSR1 profile 1.76.
CENPH scored mean correlation with KSR1 profile -0.343; mean distance from KSR1 profile 2.69.
For EIF3E, the values are mean correlation with KSR1 profile -0.216; mean distance from KSR1 profile 2.24.
